Results reported in patent US20160145328A1.
Results are given in words; binding and its absence hold for the method and conditions named. Some entries that bind do so weakly or less than the wild type. One block for each binder: values may come before it.

Legend:
Hen-Egg-Lysozyme (hen) = Hen-Egg-Lysozyme (hen) (UniProt P00698); test: SPR (Biacore 2000), biotinylated antigen on streptavidin chip, purified VH
[1] = target: T1, human prolactin receptor (human) (UniProt P16471); test: as above
T1 sequence (looked up): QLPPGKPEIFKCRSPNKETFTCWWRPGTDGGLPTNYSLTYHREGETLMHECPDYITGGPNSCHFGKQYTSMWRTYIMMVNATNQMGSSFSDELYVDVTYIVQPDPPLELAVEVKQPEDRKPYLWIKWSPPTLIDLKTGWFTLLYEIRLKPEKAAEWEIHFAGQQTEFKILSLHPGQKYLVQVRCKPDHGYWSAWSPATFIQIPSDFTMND

binding (Hen-Egg-Lysozyme (hen)): binds
B1: VHHEL_G08 (anti-HEL VH) (protein)
VH: EVQLLESGGGLVQPGGSLRLSCAASGFRISDEDMGWVRQAPGKGLEWVSYIDNNGYSTYYADSVKGRFTISRDNSKNTLYLQMNSLRAEDTAVYYCAKKQYGYQNGGFDYWGQGTLVTVSS

binding [1]: binds
B2: VHPRLR_C02 (anti-hPRLR VH) (protein)
VH: EVQLLESGGGLVQPGGSLRLSCAASGFRFADEDMGWVRQAPGKGLEWVSDISGDGYSTYYADSVKGRFTISRDNSKNTLYLQMNSLRAEDTAVYYCAKLPPVYLGGAFDYWGQGTLVTVSS
